Results deposited as PubChem BioAssay AID686943 (Drosophila RNAi Screening Center, 2013)
Test: 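Knockdowns that increase or decrease active ERK after insulin receptor stimulation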 (primary screen). System: Drosophila S2R+ haemocyte-like cells expressing YFP-tagged ERK (Rolled). Reagents: long dsRNA against Drosophila genes. Treatment: insulin stimulation versus unstimulated cells; dose and duration not given. Detection: 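Per-plate z-scores of phospho-ERK immunostaining normalised to YFP-tagged ERK, measured with and without insulin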. Scale: replicate 1, z-score of dpERK with insulin: higher = more active ERK per ERK-YFP after insulin.
In all, the deposit lists about 23,000 reagents; this is a random part of those that have a named target and a result. 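Extra replicates exist only for a retested subset of genes; insulin dose and duration not given; both raised and lowered dpERK matter.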 The numbers tell different reagents against one gene apart. Not all columns of the deposit are shown. Not given: the amount of reagent, the time to read-out.

| gene | reagent | replicate 1, z-score of dpERK with insulin |
| --- | --- | --- |
| CG42724 | 1 | 0.37 |
| CG42724 | 2 | 2.14 |
| CG14017 | 1 | 0.89 |
| topi (matotopetli) | 1 | -0.29 |
| CG8306 | 1 | -0.01 |
| CG4650 | 1 | 1.22 |
| Ilp3 (Insulin-like peptide 3) | 1 | 1.16 |
| CG33332 | 1 | -0.94 |
| CG33490 | 1 | -1.07 |
| CG17026 | 1 | 0.68 |
| POSH (Plenty of SH3s) | 1 | 1.01 |
| GatA (Glutamyl-tRNA amidotransferase, subunit A) | 1 | 0.05 |
| CG9313 | 1 | 0.99 |
| CG30172 | 1 | 0.42 |
| Cyp313a2 (Cytochrome P450 313a2) | 1 | 0.07 |
| Kmn1 (kinetochore Mis12-Ndc80 network component 1) | 1 | -0.02 |
| Tsp29Fb (Tetraspanin 29Fb) | 1 | 0.06 |
| mGluR (metabotropic Glutamate Receptor) | 1 | -0.01 |
| CG32225 | 1 | 0.78 |
| Adgf-D (Adenosine deaminase-related growth factor D) | 1 | -0.08 |
| CG13001 | 1 | 0.39 |
| CG13001 | 2 | -0.04 |
| Whamy (WHAMM and JMY related) | 1 | 0.75 |
| sit (stuck in traffic) | 1 | 0 |
| CG33080 | 1 | -1.02 |
| CG33080 | 2 | -0.21 |
| CG33080 | 3 | 0.1 |
| CG40006 | 1 | -0.77 |
| CG40006 | 2 | 1.59 |
| CG40006 | 3 | -1.34 |
| CG40006 | 4 | 0.92 |
| CG3635 | 1 | -0.37 |
| CG31832 | 1 | -0.25 |
| CG17065 | 1 | 0.99 |
| Mrgn1 (Mahogunin ring finger 1) | 1 | -0.99 |
| sick (sickie) | 1 | 1.19 |
| sick (sickie) | 2 | -0.26 |
| sick (sickie) | 3 | 0.07 |
| sick (sickie) | 4 | 0.08 |
| sick (sickie) | 5 | -1.24 |
| sick (sickie) | 6 | -1.71 |
